1 substance from paper PMC4676093 can be followed below.

Amino acid sequences for entries named in this document (tags omitted). A change or cut given only in a name is not applied to a line headed by its entry. Chains listed by the source or under a name are the forms on record and can include a tag or linker.
UniProt Q9NUM4: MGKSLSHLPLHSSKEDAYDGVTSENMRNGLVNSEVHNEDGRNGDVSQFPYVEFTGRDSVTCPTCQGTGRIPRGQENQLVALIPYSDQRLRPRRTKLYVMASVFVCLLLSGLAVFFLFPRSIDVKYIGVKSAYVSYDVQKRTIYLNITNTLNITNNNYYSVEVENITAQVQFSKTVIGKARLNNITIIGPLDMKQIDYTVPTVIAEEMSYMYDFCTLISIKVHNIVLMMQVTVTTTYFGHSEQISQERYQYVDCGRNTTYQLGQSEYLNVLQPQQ
Flag-tagged TMEM106B S185 variant (transmembrane protein 106B) (Q9NUM4, form named): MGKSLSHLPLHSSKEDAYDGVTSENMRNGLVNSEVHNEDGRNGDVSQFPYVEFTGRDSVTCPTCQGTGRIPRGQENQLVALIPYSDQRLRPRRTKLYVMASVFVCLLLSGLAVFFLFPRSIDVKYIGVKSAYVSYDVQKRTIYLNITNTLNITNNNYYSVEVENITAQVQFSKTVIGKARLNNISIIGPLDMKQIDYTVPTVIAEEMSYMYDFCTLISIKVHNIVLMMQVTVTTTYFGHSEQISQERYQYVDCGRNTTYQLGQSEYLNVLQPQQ
UniProt Q9UQN3: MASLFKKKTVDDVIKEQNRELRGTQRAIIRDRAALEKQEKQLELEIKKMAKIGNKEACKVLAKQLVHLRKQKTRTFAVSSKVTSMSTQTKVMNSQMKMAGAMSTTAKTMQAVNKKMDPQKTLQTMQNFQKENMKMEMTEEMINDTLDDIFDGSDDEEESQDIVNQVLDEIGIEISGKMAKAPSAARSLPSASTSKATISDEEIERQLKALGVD

Test [1] addresses Flag-tagged TMEM106B S185 variant (transmembrane protein 106B) (human) (UniProt Q9NUM4). The experiment in a line: co-IP; HEK293T cells transfected with flag-tagged TMEM106B variants (alone, or with CHMP2B^Intron5-cMyc); lysis in 50 mM Tris-HCl pH 7.5, 150 mM NaCl, 1 % NP40, 0.5 % sodium deoxycholate; anti-FLAG antibody overnight at 4 °C, Protein G agarose; blots with anti-CHMP2B, anti-cMyc or anti-flag.

Test [2] has as its target Flag-tagged TMEM106B T185 variant (transmembrane protein 106B) (human) (UniProt Q9NUM4). The test is described as above.

No constants are given. Whether binding was seen depends on the method and setting. In cells and extracts the contact can be indirect. A result given as binding can be weak or reduced; the word gives no strength.

For the substance “CHMP2B^Intron5-cMyc (FTD-3-linked mutant of charged multivesicular body protein 2B) (from UniProt Q9UQN3)”, the binding entry in test [1] and in test [2] was “binds” in each case.
